PubChem BioAssay AID1259254, NCATS, 2017

- Aim: 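Gene knock-downs that lead to re-replication, shown by excess G2 DNA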 (primary screen)
- System: human HCT116 colorectal cancer cells
- Reagent: single siRNA against human genes
- Time to read-out: 3 days
- Measured: 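Imaged Hoechst DNA stain sorts each cell into a cycle phase by DNA amount; per plate, G2 fraction set to 0% for non-targeting and 100% for GMNN siRNA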
- Reading the numbers: G2 robust z-score and G2 cells, % of GMNN control: higher = more G2 cells, more excess DNA replication; raw share of cells in G2: higher = larger share of cells with G2 DNA content
- Hit rule: 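Active siRNAs have a G2 robust z of 5 or more median absolute deviations over the median, which in these data means about 38% or higher of GMNN control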
The whole screen tested about 59,000 reagents; shown is a random part of them. In the full data, about 1,550 (2.6%) were called active. 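G2 share is only a proxy for re-replication; each gene was hit by three separate siRNAs, and active genes were retested.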 Raw values are not corrected between plates. The numbers tell different reagents against one gene apart. Reagent sequences are not shown. Not given: the amount of reagent.

Gene	siRNA no.	G2 robust z-score	G2 cells, % of GMNN control	raw share of cells in G2 (%)	outcome
FNDC4	1	0.371	5.58	7.01	inactive
FNDC4	2	-0.426	-0.0274	4.6	inactive
FNDC4	3	-0.311	0.783	2.9	inactive
GAS1	1	0.693	7.84	8.98	inactive
GAS1	2	1.05	10.3	7.87	inactive
GAS1	3	3.18	25.4	13.5	inactive
FAM201B	1	4.34	33.5	15.5	inactive
FAM201B	2	0.389	5.71	5.76	inactive
FAM201B	3	1.1	10.7	8.49	inactive
CSF2	1	3.7	29	18.9	inactive
CSF2	2	-0.56	-0.974	3.73	inactive
CSF2	3	-0.402	0.142	3.58	inactive
RALYL	1	0.3	5.08	6.09	inactive
RALYL	2	0.467	6.25	5.08	inactive
RALYL	3	-0.455	-0.231	2.5	inactive
TBC1D31	1	-0.285	0.959	2.1	inactive
TBC1D31	2	0.086	3.57	5.52	inactive
TBC1D31	3	0.13	3.88	4.49	inactive
ADGRG7	1	-0.966	-3.83	4.47	inactive
ADGRG7	2	-0.937	-3.63	3.25	inactive
ADGRG7	3	0.107	3.72	4.41	inactive
TSPO2	1	-0.24	1.28	6.57	inactive
TSPO2	2	0.197	4.36	6.3	inactive
TSPO2	3	1.53	13.8	10.5	inactive
TAS2R40	1	0.143	3.97	5.09	inactive
TAS2R40	2	0.298	5.06	5	inactive
TAS2R40	3	-0.164	1.82	3.82	inactive
DGKI	1	-0.364	0.405	5.71	inactive
DGKI	2	-0.721	-2.1	4.43	inactive
DGKI	3	-0.213	1.47	4.15	inactive
SCNN1A	1	4.96	37.9	19.1	inactive
SCNN1A	2	-0.946	-3.69	3.53	inactive
SCNN1A	3	0.952	9.66	8.15	inactive
ZNF398	1	1.85	16	8.44	inactive
ZNF398	2	-0.434	-0.0886	5.87	inactive
ZNF398	3	-0.617	-1.38	3.2	inactive
LOC646804	1	-0.774	-2.48	2.84	inactive
LOC646804	2	-0.303	0.839	3.54	inactive
LOC646804	3	2.27	19	9.06	inactive
MYCL	1	-0.82	-2.8	4.28	inactive
MYCL	2	-0.722	-2.11	2.5	inactive
MYCL	3	-0.654	-1.63	4.82	inactive
PML	1	1.1	10.7	8.65	inactive
PML	2	5.14	39.1	19.6	active
PML	3	-1.19	-5.39	2.35	inactive
ALKBH1	1	-1.02	-4.18	3.21	inactive
ALKBH1	2	-1.05	-4.41	3.72	inactive
ALKBH1	3	-1.31	-6.23	1.71	inactive

6 entries from above in another layout:
Gene | siRNA no. | G2 robust z-score | G2 cells, % of GMNN control | raw share of cells in G2 (%) | outcome
GAS1 | 3 | 3.18 | 25.4 | 13.5 | inactive
FAM201B | 1 | 4.34 | 33.5 | 15.5 | inactive
FAM201B | 2 | 0.389 | 5.71 | 5.76 | inactive
FAM201B | 3 | 1.1 | 10.7 | 8.49 | inactive
CSF2 | 1 | 3.7 | 29 | 18.9 | inactive
CSF2 | 2 | -0.56 | -0.974 | 3.73 | inactive
